Source: article PMC9061857 (Nature Communications, 2022)

Test: general procedure: Fmoc solid-phase peptide synthesis; 2-chlorotrityl chloride polystyrene resin; COMU/Oxyma/DIPEA
Details: whole synthesis

Substance	final HPLC purity
IEPDAL	96%
IEPDSL	96%
IEPDAG	97%
IEPDSG	94%
IEPDWL	93%
IEPDRL	99%
IEPDWR	95%
IEFDAL	99%

Where no end group is shown, it is not given here.
